Laboratory results published in US5530095A, “Peptides of melanin concentrating hormone precursor” (The Salk Institute for Biological Studies, priority 1995, dated 1996).
Part of at least one peptide drawing is inferred or uncertain, most often the ends. Ends that are not written are not given here.

What was measured:
[1] = system: antibodies against human alpha-MSH; experiment: Cross-reaction with antibodies against human alpha-MSH; format: binding; details: epitope including the N-terminus of NEI
[2] = system: antibodies against human CRF; experiment: Cross-reaction with antibodies against human CRF; format: binding; details: epitope including the C-terminus of NEI

Substance: EIGDEENSAKFPI-NH2 [NEI, Glu-Ile-Gly-Asp-Glu-Glu-Asn-Ser-Ala-Lys-Phe-Pro-Ile-NH2]
- cross-reaction of anti-alpha-MSH antibodies [1]: cross-react
- cross-reaction of anti-CRF antibodies [2]: cross-react
